# From the supplement of paper PMC8728848
# The list shows a part of the results.
# B1: Eosinophil-derived neurotoxin (EDN) (Homo sapiens), P10153 (protein)
# chain: MVPKLFTSQICLLLLLGLLAVEGSLHVKPPQFTWAQWFETQHINMTSQQCTNAMQVINNYQRRCKNQNTFLLTTFANVVNVCGNPNMTCPSNKTRKNCHHSGSQVPLIHCNLTTPSPQNISNCRYAQTPANMFYIVACDNRDQRRDPPQYPVVPVHLDRII
# Experiments:
# Experiment in all cases: glycan array binding signal (z-score within array); higher = stronger binding
# Details in all cases: glycan notation: IUPAC condensed, linker removed
# Gal6S(b1-4)Glc6S = target: Gal6S(b1-4)Glc6S
# How it was run: (§1)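 Glycan array binding is given as a within-array Z-score, which can be read as non-binding when negative. The arrays, 3228 of them, came from the Consortium for Functional Glycomics database and were retained only where the protein sequence was available. Z-scores were averaged across arrays of the same protein sequence at different concentrations or buffers and across linkers.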
# Gal6S(b1-4)GlcNAc = target: Gal6S(b1-4)GlcNAc
# How it was run: as §1
# Gal6S(b1-4)GlcNAc6S = target: Gal6S(b1-4)GlcNAc6S
# How it was run: as §1
# GalNAc(a1-3)Gal = target: GalNAc(a1-3)Gal
# How it was run: as §1
# GalNAc(a1-3)GalNAc = target: GalNAc(a1-3)GalNAc
# How it was run: as §1
# [1] = target: GalNAc(a1-3)GalNAc(b1-3)Gal(a1-4)Gal(b1-4)Glc
# How it was run: as §1
# [2] = target: GalNAc(a1-3)GalNAc(b1-3)Gal(a1-4)Gal(b1-4)GlcNAc
# How it was run: as §1
# GalNAc(b1-3)Gal = target: GalNAc(b1-3)Gal
# How it was run: as §1
# [3] = target: GalNAc(b1-3)Gal(a1-4)Gal(b1-4)GlcNAc
# How it was run: as §1
# [4] = target: GalNAc(b1-3)Gal(a1-4)Gal(b1-4)GlcNAc(b1-3)Gal(b1-4)Glc
# How it was run: as §1
# [5] = target: GalNAc(b1-3)Gal(a1-6)Gal(b1-4)Glc
# How it was run: as §1
# GalNAc(b1-3)GalNAc = target: GalNAc(b1-3)GalNAc
# How it was run: as §1
# GalNAc(b1-4)Gal(b1-4)Glc = target: GalNAc(b1-4)Gal(b1-4)Glc
# How it was run: as §1
# GalNAc(b1-4)GlcNAc = target: GalNAc(b1-4)GlcNAc
# How it was run: as §1
# [6] = target: GalNAc(b1-4)GlcNAc(b1-2)Man(a1-3)[GalNAc(b1-4)GlcNAc(b1-2)Man(a1-6)]Man(b1-4)GlcNAc(b1-4)GlcNAc
# How it was run: as §1
# GalNAc(b1-6)GalNAc = target: GalNAc(b1-6)GalNAc
# How it was run: as §1
# Glc(a1-4)Glc = target: Glc(a1-4)Glc
# How it was run: as §1
# [7] = target: Glc(a1-4)Glc(a1-4)Glc(a1-4)Glc
# How it was run: as §1
# Glc(a1-6)Glc(a1-6)Glc = target: Glc(a1-6)Glc(a1-6)Glc
# How it was run: as §1
# [8] = target: Glc(a1-6)Glc(a1-6)Glc(a1-6)Glc
# How it was run: as §1
# Glc(b1-4)Glc = target: Glc(b1-4)Glc
# How it was run: as §1
# Glc(b1-6)Glc = target: Glc(b1-6)Glc
# How it was run: as §1
# GlcA(b1-3)Gal = target: GlcA(b1-3)Gal
# How it was run: as §1
# GlcA(b1-3)GlcNAc = target: GlcA(b1-3)GlcNAc
# How it was run: as §1
# GlcA(b1-6)Gal = target: GlcA(b1-6)Gal
# How it was run: as §1
# [9] = target: GlcNAc(a1-3)Gal(b1-4)GlcNAc
# How it was run: as §1
# [10] = target: GlcNAc(a1-4)Gal(b1-3)GlcNAc
# How it was run: as §1
# [11] = target: GlcNAc(a1-4)Gal(b1-4)GalNAc
# How it was run: as §1
# [12] = target: GlcNAc(a1-4)Gal(b1-4)GlcNAc
# How it was run: as §1
# [13] = target: GlcNAc(a1-4)Gal(b1-4)GlcNAc(b1-3)Gal(b1-4)Glc
# How it was run: as §1
# [14] = target: GlcNAc(a1-4)Gal(b1-4)GlcNAc(b1-3)Gal(b1-4)GlcNAc
# How it was run: as §1
# [15] = target: GlcNAc(a1-4)Gal(b1-4)GlcNAc(b1-3)Gal(b1-4)GlcNAc(b1-3)Gal(b1-4)GlcNAc
# How it was run: as §1
# [16] = target: GlcNAc(a1-4)Gal(b1-4)GlcNAc(b1-3)Gal(b1-4)[Fuc(a1-3)]GlcNAc(b1-3)Gal(b1-4)[Fuc(a1-3)]GlcNAc
# How it was run: as §1
# [17] = target: GlcNAc(a1-6)Gal(b1-4)GlcNAc
# How it was run: as §1
# [18] = target: GlcNAc(b1-2)Gal(b1-3)GalNAc
# How it was run: as §1
# [19] = target: GlcNAc(b1-2)Man(a1-3)[GlcNAc(b1-2)Man(a1-6)]Man(b1-4)GlcNAc(b1-4)GlcNAc
# How it was run: as §1
# [20] = target: GlcNAc(b1-2)Man(a1-3)[GlcNAc(b1-2)Man(a1-6)]Man(b1-4)GlcNAc(b1-4)[Fuc(a1-6)]GlcNAc
# How it was run: as §1
# [21] = target: GlcNAc(b1-2)Man(a1-3)[GlcNAc(b1-4)][GlcNAc(b1-2)Man(a1-6)]Man(b1-4)GlcNAc(b1-4)GlcNAc
# How it was run: as §1
# [22] = target: GlcNAc(b1-2)[GlcNAc(b1-4)]Man(a1-3)[GlcNAc(b1-2)Man(a1-6)]Man(b1-4)GlcNAc(b1-4)GlcNAc
# How it was run: as §1
# [23] = target: GlcNAc(b1-2)[GlcNAc(b1-4)]Man(a1-3)[GlcNAc(b1-4)][GlcNAc(b1-2)Man(a1-6)]Man(b1-4)GlcNAc(b1-4)GlcNAc
# How it was run: as §1
# [24] = target: GlcNAc(b1-2)[GlcNAc(b1-4)]Man(a1-3)[GlcNAc(b1-4)][GlcNAc(b1-2)[GlcNAc(b1-6)]Man(a1-6)]Man(b1-4)GlcNAc(b1-4)GlcNAc
# How it was run: as §1
# [25] = target: GlcNAc(b1-2)[GlcNAc(b1-6)]Man(a1-6)[GlcNAc(b1-2)Man(a1-3)]Man(b1-4)GlcNAc(b1-4)GlcNAc
# How it was run: as §1
# [26] = target: GlcNAc(b1-2)[GlcNAc(b1-6)]Man(a1-6)[GlcNAc(b1-2)Man(a1-3)][GlcNAc(b1-4)]Man(b1-4)GlcNAc(b1-4)GlcNAc
# How it was run: as §1
# GlcNAc(b1-3)Gal = target: GlcNAc(b1-3)Gal
# How it was run: as §1
# [27] = target: GlcNAc(b1-3)Gal(b1-3)GalNAc
# How it was run: as §1
binder,measurement,setting,value
B1,glycan array binding signal (z-score),Gal6S(b1-4)Glc6S,-0.517
same,glycan array binding signal (z-score),Gal6S(b1-4)GlcNAc,-0.689
same,glycan array binding signal (z-score),Gal6S(b1-4)GlcNAc6S,-0.122
same,glycan array binding signal (z-score),GalNAc(a1-3)Gal,-0.107
same,glycan array binding signal (z-score),GalNAc(a1-3)GalNAc,-0.107
same,glycan array binding signal (z-score),[1],-0.141
same,glycan array binding signal (z-score),[2],-0.528
same,glycan array binding signal (z-score),GalNAc(b1-3)Gal,0.325
same,glycan array binding signal (z-score),[3],0.073
same,glycan array binding signal (z-score),[4],-0.993
same,glycan array binding signal (z-score),[5],0.279
same,glycan array binding signal (z-score),GalNAc(b1-3)GalNAc,0.145
same,glycan array binding signal (z-score),GalNAc(b1-4)Gal(b1-4)Glc,-0.211
same,glycan array binding signal (z-score),GalNAc(b1-4)GlcNAc,-0.053
same,glycan array binding signal (z-score),[6],0.003
same,glycan array binding signal (z-score),GalNAc(b1-6)GalNAc,-0.109
same,glycan array binding signal (z-score),Glc(a1-4)Glc,-0.482
same,glycan array binding signal (z-score),[7],0.081
same,glycan array binding signal (z-score),Glc(a1-6)Glc(a1-6)Glc,0.261
same,glycan array binding signal (z-score),[8],0.37
same,glycan array binding signal (z-score),Glc(b1-4)Glc,-0.293
same,glycan array binding signal (z-score),Glc(b1-6)Glc,-0.485
same,glycan array binding signal (z-score),GlcA(b1-3)Gal,1.01
same,glycan array binding signal (z-score),GlcA(b1-3)GlcNAc,-0.868
same,glycan array binding signal (z-score),GlcA(b1-6)Gal,-0.344
same,glycan array binding signal (z-score),[9],0.256
same,glycan array binding signal (z-score),[10],-0.632
same,glycan array binding signal (z-score),[11],-0.236
same,glycan array binding signal (z-score),[12],-0.032
same,glycan array binding signal (z-score),[13],0.067
same,glycan array binding signal (z-score),[14],12.5
same,glycan array binding signal (z-score),[15],-0.171
same,glycan array binding signal (z-score),[16],1.45
same,glycan array binding signal (z-score),[17],-0.29
same,glycan array binding signal (z-score),[18],-0.033
same,glycan array binding signal (z-score),[19],0.078
same,glycan array binding signal (z-score),[20],0.129
same,glycan array binding signal (z-score),[21],0.131
same,glycan array binding signal (z-score),[22],-0.018
same,glycan array binding signal (z-score),[23],0.16
same,glycan array binding signal (z-score),[24],-0.3
same,glycan array binding signal (z-score),[25],-0.199
same,glycan array binding signal (z-score),[26],0.017
same,glycan array binding signal (z-score),GlcNAc(b1-3)Gal,-0.016
same,glycan array binding signal (z-score),[27],-0.554

# For convenience, some entries already given.
binder,measurement,setting,value
B1,glycan array binding signal (z-score),GlcNAc(b1-3)Gal,-0.016
same,glycan array binding signal (z-score),[27],-0.554
